# Assay results: PubChem BioAssay AID1688 (National Center for Advancing Translational Sciences (NCATS), 2009)
# Out of some 220,000 compounds screened, about 2,400 (1.1%) were called active. The inconclusive results got no clear call from the source; some entries with a clear call stand among them for comparison. Calls follow the shape of the dose curve; as a rule, active = well fitted inhibition curve with a large enough effect; inconclusive = small, poorly fitted or top-dose-only effect, or effect the other way; inactive = no such curve, though single readings can be large or run the other way. Potencies of inconclusive entries are doubtful fits and often do not repeat. Square brackets hold non-standard residues; d marks the D form. Peptide text beside a SMILES is read from it. * marks the point of attachment. ξ: configuration not given here. Boc = CC(C)(C)OC(=O)*; ξP = O=C(O)C1CCCN1
# Experiment: qHTS Multiplex Assay to Identify Dual Action Probes in a Cell Model of Huntington: Aggregate Formation (GFP); also: nearly all actives have a fitted effect of over 60% in size
# Conditions: PC12 HttQ103-GFP aggregates, Acumen cytometry, 40 h; activity change, negative = inhibition: at 46.1 µM (top of the series) unless noted
# Method in brief: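 Ecdysone-promoter PC12 model expressing HTT exon 1 Q103 fused to GFP, induced by tebufenozide at 100 nM final. Compounds titrated; aggregates sized 1–25 µm scored on a 488 nm laser cytometer.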
# % is scaled to controls: 0 for no effect and ±100 for the full control effect; potency is read from the fitted curve at half-maximal effect.
Compound,Potency,"activity change, negative = inhibition"
CC(C)(C)c1ccc(C(=O)c2c[nH]c(C(=O)NCC3CCCO3)c2)cc1 (centres undefined),"inconclusive: 25.1 µM [inhibitor, single point]",
CCN(c1cccc(C)c1)S(=O)(=O)c1ccc2c3c(cccc13)C(=O)N2,"inconclusive: 14.1 µM [inhibitor, single point]",
O=C(Nc1ccccc1N1CCCC1)c1cc2ccccc2o1,"inconclusive: 12.6 µM [inhibitor, single point]",
Cc1cccc(NC(=O)CCC(=O)N/N=C/c2ccncc2)c1,inactive,
CCn1c(COc2ccccc2C)nnc1SCC(=O)Nc1ccc2c(c1)OCCO2,"inconclusive: 0.794 µM [activator, full curve, poor fit]",
O=C(COc1ccccc1)Nc1ccccc1NS(=O)(=O)c1cccs1,"inconclusive: 35.5 µM [inhibitor, single point]",
CCCn1c(SCC(=O)Nc2cc(S(=O)(=O)N(C)C)ccc2OC)n[nH]c1=O,inactive,
Cc1nn(-c2ccccc2)c(Cl)c1C(=O)NCCN(C)C,inactive,
Cc1nc(SCc2ccc(Cl)c(Cl)c2)ncc1C(=O)O,"inconclusive: 0.562 µM [activator, full curve, poor fit]",
O=S(=O)(c1ccc(NC(=S)N2CCN(c3ccc(O)cc3)CC2)cc1)N1CCOCC1,inactive,
O=C(NCc1ccccc1)c1ccc2c(=O)n(CC3CCCO3)c(=S)[nH]c2c1 (centres undefined),inactive,
CO[C@H]1OC2O[C@@]3(C)CC[C@H]4[C@H](C)CC[C@@H]([C@H]1C)[C@@]24OO3 (some centres undefined),inactive,
COc1ccc(S(=O)(=O)Nc2nnc(C(C)(C)C)s2)cc1,inactive,
CC(C)(C)NC(=O)CSc1nc2ccc(NC(=O)CSc3nnc(N)s3)cc2s1,"inconclusive: 8.91 µM [inhibitor, partial curve, poor fit]",
COc1cc(/C=C/C(=O)Nc2ccncc2)cc(OC)c1OC,"inconclusive: 11.2 µM [activator, partial curve]",
Cc1ccc(S(=O)(=O)N2CCCC(C(=O)Nc3ccc(C(=O)O)cc3)C2)cc1Cl (centres undefined),"inconclusive: 6.31 µM [activator, partial curve, poor fit]",
COc1ccc(-c2noc(CCC(=O)NC3CCCCC3)n2)cc1OC,inactive,
CSc1nc2ccc(NS(=O)(=O)c3ccccc3F)cc2s1,"inconclusive: 1.41 µM [inhibitor, partial curve, poor fit]",
CCCN1C(=O)C(O)(C2COC(C)(C)CC2=O)c2ccccc21 (centres undefined),,inactive: 0.831% [at 9.22 µM]
O=S(=O)(c1ccc(S(=O)(=O)N(Cc2cccs2)CC2CCCO2)cc1)N1CCCCC1 (centres undefined),inactive,
CCOc1cc(C#N)c(NC(=O)Cn2nnc3ccccc32)cc1OCC,"inconclusive: 35.5 µM [inhibitor, single point]",
C=CCNc1nc(N2CCCCC2)c(C#N)c2c1CN(Cc1ccccc1)CC2,"inconclusive: 35.5 µM [inhibitor, single point]",

Compound,Potency,"activity change, negative = inhibition"
CC1CC(C)CN(S(=O)(=O)c2ccc(C(=O)Nc3nnc(-c4cccs4)o3)cc2)C1 (centres undefined),active: 7.94 µM,
Cn1nc(-c2ccc(N3CCOCC3)c(NS(=O)(=O)c3ccccc3)c2)c2ccccc2c1=O,"inconclusive: 0.562 µM [activator, full curve, poor fit]",
COc1ccc(C(CC(=O)Nc2ccccc2OC)n2cccc2)cc1 (centres undefined),"inconclusive: 0.562 µM [activator, full curve, poor fit]",
Cc1ccn2c(Nc3ccccc3C)c(-c3ccccn3)nc2c1,"inconclusive: 35.5 µM [inhibitor, single point]",
CCCNC(=O)c1ccc2c(=O)c(O)c(-c3ccc(Cl)c([N+](=O)[O-])c3)[nH]c2c1,"inconclusive: 5.62 µM [activator, single point]",
COc1ccccc1CN=Cc1[nH]c2ccc(Br)c(Cl)c2c1O,"inconclusive: 35.5 µM [inhibitor, single point]",
COc1ccc(NC(=S)NN(C)C(=S)Nc2ccc(OC)cc2)cc1,inactive,
COc1ccc(-n2c(C)cc(C(=O)CCl)c2C)cc1,"inconclusive: 35.5 µM [inhibitor, single point]",
Cc1ccc(-n2ncc3c(=O)n(CC(=O)N4CCN(c5ccccc5)CC4)cnc32)cc1C,"inconclusive: 0.501 µM [activator, full curve, poor fit]",
Cc1ccc(O)c(C(=O)c2cnn(-c3ccccc3)c2)c1,"inconclusive: 25.1 µM [inhibitor, partial curve]",
Cc1nc(SCn2nnc3ccccc3c2=O)c2c(C)c(C)sc2n1,inactive,
Cc1ccc(NS(=O)(=O)c2ccc(CCC(=O)NCc3cccnc3)cc2)cc1,inactive,
Clc1ccccc1-c1nn2c(-c3ccncc3)nnc2s1,"inconclusive: 7.08 µM [inhibitor, partial curve]",
COCCNC(=O)CN(C(=O)CCC(=O)Nc1ccccn1)c1ccccc1F,active: 0.0045 µM,
COC(=O)CNC(=O)C1CCCN1C(=O)CNC(=O)OC(C)(C)C (stereo not drawn) (Boc-Gly-[ξP]-Gly-OMe),"inconclusive: 1.26 µM [activator, single point]",
Cc1ccc(N(CC(O)COCc2ccco2)S(=O)(=O)c2ccc(C)cc2)cc1 (centres undefined),"inconclusive: 0.501 µM [inhibitor, full curve, poor fit]",
N#CCCn1c(O)c(N=NC(=O)CNC(=O)c2cccs2)c2ccccc21,,inactive: -8.52% [at 9.22 µM]
O=C(CNC(=O)c1ccc(S(=O)(=O)N2CCCC2)cc1)N/N=C/c1c(Cl)cccc1Cl,active: 11.2 µM,
CCOC(=O)c1[nH]c2ccc(F)cc2c1NC(=O)CN1CCN(C/C=C/c2ccccc2)CC1,"inconclusive: 22.4 µM [inhibitor, single point]",
CC1(C)Cc2ccccc2-c2nnc(SCc3ccccc3)n21,"inconclusive: 3.16 µM [activator, single point]",
CCN(CC)C(=O)CSc1nc2ccc(NC(=O)CSc3nnc(N)s3)cc2s1,"inconclusive: 35.5 µM [inhibitor, single point]",
CCC(=O)N1CCN(c2ccc(NC(=O)c3ccc([N+](=O)[O-])o3)cc2Cl)CC1,active: 20 µM,

# 2 records picked at random from those above:
Compound,Potency,"activity change, negative = inhibition"
CCC(=O)N1CCN(c2ccc(NC(=O)c3ccc([N+](=O)[O-])o3)cc2Cl)CC1,active: 20 µM,
Clc1ccccc1-c1nn2c(-c3ccncc3)nnc2s1,"inconclusive: 7.08 µM [inhibitor, partial curve]",
